In paper PMC2904775:

T1: MBP-AGO1_(366-1048) containing the PAZ-MID-PIWI domains (Arabidopsis thaliana) (UniProt O04379)
T1 sequence: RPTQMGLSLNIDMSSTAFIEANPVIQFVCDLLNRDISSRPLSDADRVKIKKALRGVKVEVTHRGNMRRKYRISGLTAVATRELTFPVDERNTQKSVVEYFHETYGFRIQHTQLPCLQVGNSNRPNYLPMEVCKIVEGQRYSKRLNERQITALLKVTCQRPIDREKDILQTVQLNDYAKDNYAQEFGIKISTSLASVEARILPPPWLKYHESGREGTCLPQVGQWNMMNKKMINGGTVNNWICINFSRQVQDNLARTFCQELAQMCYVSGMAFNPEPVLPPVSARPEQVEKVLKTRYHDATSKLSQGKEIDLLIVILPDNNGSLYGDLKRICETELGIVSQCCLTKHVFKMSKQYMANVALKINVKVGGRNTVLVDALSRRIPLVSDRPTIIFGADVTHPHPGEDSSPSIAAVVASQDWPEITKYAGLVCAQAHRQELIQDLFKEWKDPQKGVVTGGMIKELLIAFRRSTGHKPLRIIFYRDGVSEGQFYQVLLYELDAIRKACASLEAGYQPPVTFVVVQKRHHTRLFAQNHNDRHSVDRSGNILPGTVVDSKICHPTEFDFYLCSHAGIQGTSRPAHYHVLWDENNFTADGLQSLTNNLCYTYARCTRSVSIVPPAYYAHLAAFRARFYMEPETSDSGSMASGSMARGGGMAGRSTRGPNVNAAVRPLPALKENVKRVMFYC

T2: 6×myc-tagged AGO1 of Arabidopsis thaliana (myc-AGO1) (Arabidopsis thaliana) (UniProt O04379)
T2 sequence: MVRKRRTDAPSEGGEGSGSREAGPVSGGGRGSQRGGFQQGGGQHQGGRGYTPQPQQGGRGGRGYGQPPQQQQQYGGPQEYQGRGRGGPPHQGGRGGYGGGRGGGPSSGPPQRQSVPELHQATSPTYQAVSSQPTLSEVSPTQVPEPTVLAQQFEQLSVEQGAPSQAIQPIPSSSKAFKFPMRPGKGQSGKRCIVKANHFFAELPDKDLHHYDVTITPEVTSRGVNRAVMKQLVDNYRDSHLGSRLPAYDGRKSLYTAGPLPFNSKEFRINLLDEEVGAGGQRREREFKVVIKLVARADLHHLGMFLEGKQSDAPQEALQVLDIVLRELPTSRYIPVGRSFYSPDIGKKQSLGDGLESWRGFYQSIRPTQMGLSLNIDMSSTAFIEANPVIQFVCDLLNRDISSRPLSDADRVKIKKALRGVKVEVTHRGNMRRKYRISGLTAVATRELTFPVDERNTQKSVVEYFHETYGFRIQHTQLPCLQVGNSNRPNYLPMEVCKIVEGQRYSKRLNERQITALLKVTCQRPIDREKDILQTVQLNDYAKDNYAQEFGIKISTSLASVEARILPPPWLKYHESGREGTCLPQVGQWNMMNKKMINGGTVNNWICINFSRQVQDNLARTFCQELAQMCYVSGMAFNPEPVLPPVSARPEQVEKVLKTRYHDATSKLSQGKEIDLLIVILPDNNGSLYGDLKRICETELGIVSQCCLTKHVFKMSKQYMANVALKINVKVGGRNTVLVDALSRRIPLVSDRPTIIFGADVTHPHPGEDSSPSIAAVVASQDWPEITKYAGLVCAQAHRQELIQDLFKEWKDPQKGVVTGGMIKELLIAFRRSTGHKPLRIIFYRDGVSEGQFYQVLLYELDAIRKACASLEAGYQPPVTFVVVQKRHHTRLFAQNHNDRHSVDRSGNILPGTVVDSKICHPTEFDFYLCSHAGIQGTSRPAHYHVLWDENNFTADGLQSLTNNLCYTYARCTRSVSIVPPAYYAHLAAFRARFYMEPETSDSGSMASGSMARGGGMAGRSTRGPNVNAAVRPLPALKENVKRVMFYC

B1: 6×myc-tagged AGO1 of Arabidopsis thaliana (myc-AGO1) (protein, UniProt O04379 1-1048)
chain: MVRKRRTDAPSEGGEGSGSREAGPVSGGGRGSQRGGFQQGGGQHQGGRGYTPQPQQGGRGGRGYGQPPQQQQQYGGPQEYQGRGRGGPPHQGGRGGYGGGRGGGPSSGPPQRQSVPELHQATSPTYQAVSSQPTLSEVSPTQVPEPTVLAQQFEQLSVEQGAPSQAIQPIPSSSKAFKFPMRPGKGQSGKRCIVKANHFFAELPDKDLHHYDVTITPEVTSRGVNRAVMKQLVDNYRDSHLGSRLPAYDGRKSLYTAGPLPFNSKEFRINLLDEEVGAGGQRREREFKVVIKLVARADLHHLGMFLEGKQSDAPQEALQVLDIVLRELPTSRYIPVGRSFYSPDIGKKQSLGDGLESWRGFYQSIRPTQMGLSLNIDMSSTAFIEANPVIQFVCDLLNRDISSRPLSDADRVKIKKALRGVKVEVTHRGNMRRKYRISGLTAVATRELTFPVDERNTQKSVVEYFHETYGFRIQHTQLPCLQVGNSNRPNYLPMEVCKIVEGQRYSKRLNERQITALLKVTCQRPIDREKDILQTVQLNDYAKDNYAQEFGIKISTSLASVEARILPPPWLKYHESGREGTCLPQVGQWNMMNKKMINGGTVNNWICINFSRQVQDNLARTFCQELAQMCYVSGMAFNPEPVLPPVSARPEQVEKVLKTRYHDATSKLSQGKEIDLLIVILPDNNGSLYGDLKRICETELGIVSQCCLTKHVFKMSKQYMANVALKINVKVGGRNTVLVDALSRRIPLVSDRPTIIFGADVTHPHPGEDSSPSIAAVVASQDWPEITKYAGLVCAQAHRQELIQDLFKEWKDPQKGVVTGGMIKELLIAFRRSTGHKPLRIIFYRDGVSEGQFYQVLLYELDAIRKACASLEAGYQPPVTFVVVQKRHHTRLFAQNHNDRHSVDRSGNILPGTVVDSKICHPTEFDFYLCSHAGIQGTSRPAHYHVLWDENNFTADGLQSLTNNLCYTYARCTRSVSIVPPAYYAHLAAFRARFYMEPETSDSGSMASGSMARGGGMAGRSTRGPNVNAAVRPLPALKENVKRVMFYC

Columns and labels:
[1] = target: T1, MBP-AGO1_(366-1048) containing the PAZ-MID-PIWI domains (Arabidopsis thaliana); assay: pull-down; 2 mg of MBP-AtAGO1_(366-1048) or MBP mixed with 4 mg of 6×His-P1 fragment in 30mM TRIS pH 7.5, 150mM NaCl, 5mM MgCl2 and 10% glycerol for 1 hour at 4°C; MBP-tagged proteins isolated on maltose resin, washed three times, eluted with SDS loading buffer; Western blot with anti-MBP and anti-HIS; both purified
[2] = target: T2, 6×myc-tagged AGO1 of Arabidopsis thaliana (myc-AGO1) (Arabidopsis thaliana); assay: co-IP; 6×myc-AtAGO1 precipitated with anti-myc beads from extracts of agroinfiltrated N. benthamiana leaves expressing myc-AGO1 and GFP-IR with HA-P1 or HA-P1_(1-383); IP buffer 30 mM TRIS pH 7.5, 150 mM NaCl, 5 mM MgCl2, 5 mM DTT, 10% glycerol, 1 hour at 4°C; Western blot
[3] = target: N-terminally HA-tagged SPMMV P1 (HA-P1) (Sweet potato mild mottle virus (SPMMV), African isolate 130); assay: co-IP; HA-tagged proteins precipitated with anti-HA beads from extracts of agroinfiltrated N. benthamiana leaves (3 dpi) co-expressing 6×myc-AtAGO1 and GFP-IR; IP buffer 30 mM TRIS pH 7.5, 150 mM NaCl, 5 mM MgCl2, 5 mM DTT, 10% glycerol, 1 hour at 4°C; Western blot with anti-myc and anti-HA

| Molecule | binding [2] | further results |
| --- | --- | --- |
| 6×His-P1_(1-383) N-terminal fragment of wt P1 (domain or fragment) | – | binding [1]: binds |
| HA-P1_(1-383) (domain or fragment) | binds | – |
| N-terminally HA-tagged SPMMV P1 (HA-P1) | binds | – |
| B1 | – | binding [3]: binds |

No constants are given. Whether binding was seen depends on the method and setting. A result given as binding can be weak or reduced; the word gives no strength. Where a sequence is shown, tags or fusion partners need not be part of it. For some of these results: Binding seen in cells or lysates may run through a third protein.
